Data from publication PMC11016135.
These are yes or no findings as the source states them, for the method shown. Binding seen in cells or lysates may run through a third protein. Some entries that bind do so weakly or less than the wild type. For part of these data: Sequences can lack the tags named with a protein.

Protein sequences, listed by entry. Tags and fused reporters are not part of them.
UniProt P38398: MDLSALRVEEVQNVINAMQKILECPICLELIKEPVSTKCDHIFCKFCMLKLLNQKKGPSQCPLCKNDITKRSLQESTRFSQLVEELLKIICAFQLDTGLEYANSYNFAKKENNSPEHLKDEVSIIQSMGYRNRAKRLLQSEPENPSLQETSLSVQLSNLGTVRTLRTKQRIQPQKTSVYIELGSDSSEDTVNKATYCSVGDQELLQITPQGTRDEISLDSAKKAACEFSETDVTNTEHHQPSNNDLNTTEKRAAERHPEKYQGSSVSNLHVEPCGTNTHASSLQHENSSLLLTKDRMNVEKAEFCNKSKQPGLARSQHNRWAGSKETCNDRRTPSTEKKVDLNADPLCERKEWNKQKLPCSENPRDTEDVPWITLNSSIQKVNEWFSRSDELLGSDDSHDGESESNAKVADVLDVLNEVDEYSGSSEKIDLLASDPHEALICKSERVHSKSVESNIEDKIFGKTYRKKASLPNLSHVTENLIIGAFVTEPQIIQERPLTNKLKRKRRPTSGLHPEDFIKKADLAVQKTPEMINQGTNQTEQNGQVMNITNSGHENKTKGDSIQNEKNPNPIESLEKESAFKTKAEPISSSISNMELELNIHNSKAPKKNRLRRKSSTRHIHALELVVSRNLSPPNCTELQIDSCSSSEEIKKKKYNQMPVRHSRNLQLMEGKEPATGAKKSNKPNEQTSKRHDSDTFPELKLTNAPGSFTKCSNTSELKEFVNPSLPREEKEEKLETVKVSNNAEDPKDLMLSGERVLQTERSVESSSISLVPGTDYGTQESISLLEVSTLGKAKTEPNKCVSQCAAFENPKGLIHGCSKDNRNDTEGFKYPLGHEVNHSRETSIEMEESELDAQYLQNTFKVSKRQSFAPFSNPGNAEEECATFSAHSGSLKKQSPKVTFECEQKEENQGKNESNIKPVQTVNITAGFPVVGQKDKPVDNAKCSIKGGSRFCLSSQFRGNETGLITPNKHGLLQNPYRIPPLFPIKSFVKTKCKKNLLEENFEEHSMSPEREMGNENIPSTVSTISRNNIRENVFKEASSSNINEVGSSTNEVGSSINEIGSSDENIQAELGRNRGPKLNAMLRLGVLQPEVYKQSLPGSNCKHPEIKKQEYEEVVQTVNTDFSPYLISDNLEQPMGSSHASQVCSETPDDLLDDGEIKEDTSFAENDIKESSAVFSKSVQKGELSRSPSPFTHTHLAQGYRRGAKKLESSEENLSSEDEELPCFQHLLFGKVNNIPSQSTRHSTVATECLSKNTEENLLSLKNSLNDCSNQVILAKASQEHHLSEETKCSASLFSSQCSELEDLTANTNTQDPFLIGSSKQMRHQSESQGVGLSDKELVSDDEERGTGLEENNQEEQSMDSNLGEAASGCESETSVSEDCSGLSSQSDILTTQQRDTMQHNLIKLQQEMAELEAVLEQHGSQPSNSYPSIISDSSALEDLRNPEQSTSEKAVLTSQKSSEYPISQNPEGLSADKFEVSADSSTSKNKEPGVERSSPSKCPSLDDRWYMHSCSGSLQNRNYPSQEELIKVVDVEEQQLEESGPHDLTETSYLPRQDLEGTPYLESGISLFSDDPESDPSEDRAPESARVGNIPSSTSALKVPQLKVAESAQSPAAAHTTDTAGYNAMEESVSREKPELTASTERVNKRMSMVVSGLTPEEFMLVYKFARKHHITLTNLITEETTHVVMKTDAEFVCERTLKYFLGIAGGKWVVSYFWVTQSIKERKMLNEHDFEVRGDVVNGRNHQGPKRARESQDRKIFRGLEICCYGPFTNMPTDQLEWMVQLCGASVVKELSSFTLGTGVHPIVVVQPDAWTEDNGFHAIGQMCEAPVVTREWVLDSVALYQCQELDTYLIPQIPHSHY
UniProt P49760: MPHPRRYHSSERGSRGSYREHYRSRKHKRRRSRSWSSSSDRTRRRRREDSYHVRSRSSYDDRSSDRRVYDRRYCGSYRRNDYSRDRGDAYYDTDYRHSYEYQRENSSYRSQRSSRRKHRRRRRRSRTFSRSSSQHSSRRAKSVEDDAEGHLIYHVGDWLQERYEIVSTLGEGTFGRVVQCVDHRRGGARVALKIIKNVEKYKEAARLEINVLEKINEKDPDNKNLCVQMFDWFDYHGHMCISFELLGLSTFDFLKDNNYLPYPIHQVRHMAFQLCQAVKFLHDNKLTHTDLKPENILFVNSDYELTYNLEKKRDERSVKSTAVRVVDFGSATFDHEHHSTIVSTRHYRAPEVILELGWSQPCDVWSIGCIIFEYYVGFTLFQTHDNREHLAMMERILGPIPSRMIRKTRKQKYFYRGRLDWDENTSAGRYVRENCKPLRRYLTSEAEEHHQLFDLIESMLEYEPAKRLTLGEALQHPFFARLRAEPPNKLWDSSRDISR

What was measured:
[1] = target: T1, ring finger protein 8 (RNF8) (human (endogenous in A2780)) (UniProt O76064); assay: co-IP; endogenous proteins of A2780 cells; 2 ug antibody overnight at 4 C, protein A/G magnetic beads 6 h at 4 C, six washes with NP-40 buffer; IgG as negative control
T1 sequence: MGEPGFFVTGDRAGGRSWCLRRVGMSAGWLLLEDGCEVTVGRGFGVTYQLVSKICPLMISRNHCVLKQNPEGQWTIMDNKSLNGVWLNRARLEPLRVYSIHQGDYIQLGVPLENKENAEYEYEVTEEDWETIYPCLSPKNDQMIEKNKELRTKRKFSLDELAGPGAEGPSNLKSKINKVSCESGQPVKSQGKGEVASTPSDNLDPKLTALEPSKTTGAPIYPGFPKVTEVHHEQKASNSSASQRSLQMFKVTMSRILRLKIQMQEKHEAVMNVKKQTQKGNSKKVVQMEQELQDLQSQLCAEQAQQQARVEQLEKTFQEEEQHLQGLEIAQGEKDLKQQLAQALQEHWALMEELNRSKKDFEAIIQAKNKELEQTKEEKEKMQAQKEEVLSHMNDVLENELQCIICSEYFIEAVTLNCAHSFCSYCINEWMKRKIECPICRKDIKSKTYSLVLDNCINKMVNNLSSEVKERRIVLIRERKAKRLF

[2] = target: breast cancer gene 1 (BRCA1) (human (endogenous in A2780)) (UniProt P38398); assay: co-IP; endogenous proteins of ovarian cancer cells; IP by BRCA1 antibody, IgG as negative control; cells treated with different concentrations of cisplatin for 12 h or with 66.7 uM cisplatin for different hours; protein A/G magnetic beads, NP-40 buffer washes
[3] = target: T2, Flag-RNF8 (UniProt O76064); assay: co-IP; HEK293T cells transfected with the indicated plasmids, lysed 48 h later in NP-40 lysis buffer; anti-Flag magnetic beads overnight at 4 C, six washes
T2 sequence: T1 sequence

| Substance | binding [1] | binding [2] | binding [3] |
| --- | --- | --- | --- |
| Cdc2-like kinase 2 (CLK2) (from UniProt P49760 1-499) | binds | binds |  |
| CLK2 (in HEK293T cells, exogenous co-immunoprecipitation with Flag-RNF8) (from UniProt P49760 1-499) |  |  | binds |
